From PubChem BioAssay AID623959 (National Center for Advancing Translational Sciences (NCATS), 2012)
Screen size: about 1,400 compounds; fewer than 10 were called active. Another 8% or so got no clear call; they are omitted. Calls come from the whole dose curve; as a rule, active = well fitted curve in the direction sought with a large enough effect; inconclusive = small, poorly fitted or top-dose-only effect, or another doubt; inactive = no such curve, though single readings can be large or run the other way. This is one part of the list.

Amino acid sequences for entries named in this document (tags omitted).
UniProt Q8NER1, whole entry, looked up: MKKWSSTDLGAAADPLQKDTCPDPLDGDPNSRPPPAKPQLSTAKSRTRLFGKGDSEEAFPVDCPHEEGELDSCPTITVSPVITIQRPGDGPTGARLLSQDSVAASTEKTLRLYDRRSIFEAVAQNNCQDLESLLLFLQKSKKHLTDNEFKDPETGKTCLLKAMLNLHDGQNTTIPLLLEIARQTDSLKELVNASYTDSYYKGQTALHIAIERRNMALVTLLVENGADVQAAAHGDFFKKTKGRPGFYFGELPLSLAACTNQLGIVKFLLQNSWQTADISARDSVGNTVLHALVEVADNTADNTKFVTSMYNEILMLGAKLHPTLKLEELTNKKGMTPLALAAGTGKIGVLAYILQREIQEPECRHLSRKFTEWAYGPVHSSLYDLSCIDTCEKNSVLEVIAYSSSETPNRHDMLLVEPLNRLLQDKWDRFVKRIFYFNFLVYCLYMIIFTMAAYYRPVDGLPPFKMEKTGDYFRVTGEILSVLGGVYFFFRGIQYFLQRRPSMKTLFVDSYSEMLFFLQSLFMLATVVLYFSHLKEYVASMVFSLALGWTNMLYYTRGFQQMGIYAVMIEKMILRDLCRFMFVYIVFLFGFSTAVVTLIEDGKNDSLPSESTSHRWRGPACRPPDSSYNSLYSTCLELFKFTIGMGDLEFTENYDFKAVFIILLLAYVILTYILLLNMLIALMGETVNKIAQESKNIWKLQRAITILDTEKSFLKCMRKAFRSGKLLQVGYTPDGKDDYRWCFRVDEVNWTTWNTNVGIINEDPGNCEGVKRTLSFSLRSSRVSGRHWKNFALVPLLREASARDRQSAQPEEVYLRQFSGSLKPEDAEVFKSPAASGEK

These molecules were tested against Transient receptor potential cation channel subfamily V member 1 (Homo sapiens) (UniProt Q8NER1) (assay: qHTS Assay for Compounds that Act as Potentiators of the Vanilloid Receptor 1: Hit Validation). Details: TRPV1-expressing cells, Fluo-8 calcium influx, capsaicin EC20; series mostly up to 42.1 µM; activity change, positive = potentiation: at the top concentration.
Summary of the method: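 TRPV1 cells (2000/well, overnight 35.5 °C) loaded with Fluo-8 calcium dye 40–90 min at room temperature. FDSS fluorescence (ex 480/em 520 nm) read 3 min after compound, then 2 min after capsaicin at EC20.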
Note: % of control where 0% means no effect.

Activity change, positive = potentiation, inactive:
CCOC(=O)C1CCN(C(=O)c2ccc(S(=O)(=O)Nc3ccccc3Cl)cc2)CC1 -5.16%
Cc1ccc(C(=O)NCC(=O)OCCOc2cccc(Cl)c2)cc1 -5.01%
Cc1ccc2nc(-c3ccccn3)cc(C(=O)Nc3ccc4c(c3)OCO4)c2c1 -39.2%
O=C(CN1CCN(S(=O)(=O)c2cccc(Br)c2)CC1)NCCc1cccs1 3.99%
COC(=O)CCCC1=CC2=C(c3ccccc3)C(=O)C(C)(OC(=O)C3CCCC3)C(=O)C2=CN1Cc1ccc(OC)cc1 (stereo unspecified) -4.83%
COc1ccc2c(c1)c1nc3ccccc3nc1n2CC(=O)OC(C)C -4.2%
Fc1ccccc1CNC(=S)NCc1ccc(Cl)cc1 -38.9%
O=c1ccn(Cc2ccccc2)c2ccccc12 -1.76%
N#Cc1ccc(/C=C\c2nccc3c2[nH]c2ccccc23)cc1 -38.4%
COc1ccc(C(=O)Nc2ccc(C3=NNC(=O)CC3C)cc2NC(=O)c2ccc(OC)cc2)cc1 (stereo unspecified) -38.6%
Fc1ccccc1-c1n[nH]c(=S)n1/N=C/c1c[nH]c2ccccc12 -7.77%
CC(C)(C)C(=O)NNC(=O)c1ccc(Oc2cc(Cl)cc(Cl)c2)o1 0.968%
COc1ccc(C)cc1N(CC(=O)NCCSCc1cccc(Cl)c1)S(C)(=O)=O 4.99%
Cc1ccnc(NS(=O)(=O)c2ccc(NC(=O)CCOc3ccccc3)cc2)n1 -5.91%
Cc1cn(C(=O)C(C)N2C(=O)c3ccccc3C2=O)c(C)n1 (stereo unspecified) -6.99%
CCN1/C(=C/C(=O)c2ccco2)Sc2ccccc21 -0.0633%
Cc1ccc(NC(=O)c2cc(S(=O)(=O)N3CCOCC3)ccc2F)c(C)c1 -31.2%
Cc1nc2ccccc2c(=O)n1CCc1ccccc1 -32%
CCC(=O)N(CCc1ccccc1)Cc1cc2cccc(C)c2[nH]c1=O -38.2%
CC(=O)c1cc(-c2ccc(F)cc2)n(CCC(=O)Nc2cccnc2)c1C -38.3%
C/C=C\C(=O)Nc1cccc(C2=NOC3(C2)C[C@@H](C(N)=O)N(C(=O)CCCCC)C3)c1 (stereo partly specified) -11.3%
O=C1c2cccnc2C(Nc2ccccc2Br)N1Cc1ccco1 (stereo unspecified) -5.99%
CCOc1ccccc1NC(=O)c1ccc2[nH]c(C)c(C)c2c1 -4.97%
COc1cccc(CCNC(=O)CCc2nnc(-c3cc(C)oc3C)o2)c1 -1.14%
CC(C)(C)OC(=O)NCCCC[C@H](NC(=O)c1nc[nH]c1C(=O)NCc1ccc(CNC(=O)OC(C)(C)C)cc1)C(=O)OC(C)(C)C 0.195%
CC1CCN(C(=O)c2cc(-c3ccc4c(c3)OCO4)on2)CC1 -36.7%
CCOC(=O)[C@H]1[C@H]2COc3ccc(OC)cc3[C@@H]2N2C(=O)c3ccccc3NC(=O)[C@@]12C -38.2%
Cc1cc(/C=N\O)c(C)n1-c1ccncc1 -6.74%
O=C(O)CC1S/C(=N/N=C/c2ccc(-c3ccc(Cl)c([N+](=O)[O-])c3)o2)NC1=O (stereo unspecified) 3.41%
CCOc1c(Nc2ccc(C(C)C)cc2)c(=O)c1=O -36.4%
O=C(Nc1ccccc1Cl)c1ccn[nH]1 3.29%
COc1ccc(C(=O)Nc2ccc(C3(C#N)CCCC3)cc2)cc1 14.5%
O=C(O)CC1Sc2nc3ccccc3n2C1=O (stereo unspecified) -14.8%
NC(=O)c1nn(-c2ccccc2)nc1N -2.78%
Cc1cc2c(NC(=O)Nc3ccccc3)cccc2nn1 -36.4%
COc1ccc(Nc2nc(C)nc3c2oc2ccccc23)cc1 -37.7%
CCNc1nc(CC)nc2c1oc1ccccc12 -36.6%
COc1cc(CN2CCN(CCCc3ccccc3)C(CCO)C2)cc(OC)c1O (stereo unspecified) 35.9%
O=C(Nc1ccc(F)cc1)c1cc2ccccc2o1 -32.5%
CCOCc1c(C(=O)Nc2ccc(OC)nc2)oc2ccccc12 -32.4%
O=C1CC(c2ccccc2)CC(O)=C1C=NCCc1ccccc1 (stereo unspecified) -7.4%
CS(=O)(=O)c1ccc(C(=O)Nc2ccc(N3CCCCC3)cc2)c(Cl)c1 -30%
COc1ccc(C2CC(C(F)(F)F)n3nc(C(=O)NCc4c(C)nn(C)c4C)c(Cl)c3N2)cc1 (stereo unspecified) -5.63%
N#C/C(=C\c1ccccc1)C(=O)OCC(=O)N1CCCC1 6.47%
Cc1ccccc1NC(=O)COc1cccc2c1CCNC2=O 4.66%
O=[N+]([O-])C1C(c2ccccc2)=NOC1c1ccccc1O (stereo unspecified) -9.52%
COc1ccc2c(c1)cc(C(=O)N[C@H](C(=O)N1CCC[C@H]1C(=O)O)C(C)C)n2C -6.61%
O=C(NCCc1ccc(Cl)cc1)c1cc2ccccn2n1 -36%
COc1ccc(S(=O)(=O)N2CCOC23CCN(S(=O)(=O)c2ccc(C)cc2)CC3)cc1 4.77%
COC(CNC(=O)c1ccc2c(c1)ncn2-c1ccc(F)cc1F)OC -5.19%
COc1cc(CNc2ccc3[nH]c(=O)[nH]c3c2)ccc1OCc1c(F)cccc1Cl -15.4%
COC(=O)[C@@]12CCCCN1[C@H](c1ccc(-c3ccc(C(C)=O)cc3)cc1)[C@H]1C(=O)N(C)C(=O)[C@H]12 -1.08%
Nc1c(Cl)ncnc1NCc1ccccc1 9.46%
O=C(Nc1nnc2n1CCS2)c1ccc(Br)o1 -4.08%
CN(C)C(=O)NCc1ccc(S(N)(=O)=O)cc1 -3.33%
O=C(Nc1ccc(N2CCCC2)cc1)c1cccc(Cl)c1Cl -24.2%
C=CCOc1c(Br)cc(CNc2ccc(NC(=O)C(C)C)cc2)cc1OCC -15%
CCC(Oc1ccccc1)C(=O)Nc1nnc(C(F)(F)F)s1 (stereo unspecified) -7.55%
CN(c1ccccc1)S(=O)(=O)c1cccc(NC(=O)Cn2cnc3ccccc3c2=O)c1 -5.16%
CCN1CCN(CCCN(Cc2ccco2)C(=S)Nc2ccccc2Cl)CC1 -6.3%
O=c1c2ccccc2c(=O)n2n1Cc1ccccc1C2 -4.89%
CC(=O)O/N=C1\C(=O)N(Cc2ccc(C)cc2)c2ccccc21 -10%
CC(C)OCCCNC(=O)C(NC(=O)c1ccc(Cl)cc1)C(C)C (stereo unspecified) -22.8%
O=c1c(-c2nnc(SCc3ccc(Cl)cc3)o2)cccn1Cc1ccccc1 10.5%
Cc1ccc(C(=O)Nc2ccc3cn[nH]c3c2)cc1S(=O)(=O)N1CCOCC1 -28.3%
CC(C)(C)OC(=O)CNC(=O)c1[nH]cnc1C(=O)N[C@@H](Cc1ccccc1)C(=O)OC(C)(C)C -38.9%
CC(C)NC(=O)CC1OC(=O)c2ccccc21 (stereo unspecified) 5.25%
CCCCc1ccc(NC(=S)N2CCC(O)CC2)cc1 -38%
CC(C)c1ccc(OCC(=O)Nc2ccncc2)cc1 -38.4%
CCOC(=O)c1c(C)c(C(=O)NCC2CCCO2)c(C)n1C (stereo unspecified) -7.81%
CCC(=O)N1CCN(c2nc(-c3ccccc3)c3c(c2C#N)CCCC3)CC1 -36%
CCNC(=O)NC(=O)C(C)OC(=O)c1cccn1C (stereo unspecified) -7.78%
CC(C)C[C@H](NC(=O)c1[nH]cnc1C(=O)N[C@@H](Cc1ccccc1)C(=O)OC(C)(C)C)C(=O)OC(C)(C)C -33.7%
COc1ccc(CC(=O)Nc2cccc(SC)c2)cc1OC -39.2%
COc1ccc(OC)c(N2C(=O)CC(Cc3cc(C)cc(C)c3)C2=O)c1 (stereo unspecified) 4.55%
CCOC(=O)[C@H]1[C@H]2COc3ccc(Cl)cc3[C@@H]2N2C(=O)c3ccc(Cl)cc3NC(=O)[C@@]12C 3%
O=C(/C=C/c1ccc(Cl)c([N+](=O)[O-])c1)c1ccc(O)cc1 -37.7%
Cc1c(OCC(=O)N2CCC(C(=O)O)CC2)ccc2c1oc(=O)c1ccccc12 1.98%
COc1ccc2nc(-c3ccccc3)[nH]c2c1 -11.1%
C#CCOCCOCCOCCNc1nc(N2CCN(C(=O)CCCCCCCCCCNC(=O)[C@H](CCCCN)n3cc(CCCC(=O)O)nn3)CC2)nc(N2CCN(C(=O)CCCCCCCCCCNC(=O)[C@H](CCCCN)n3cc(CCCC(=O)O)nn3)CC2)n1 -9.37%
Cc1cc(=O)n2c(n1)SCOC2 -5.78%
Fc1ccc(CN2CCN(c3ncnc4scc(-c5ccc(F)cc5)c34)CC2)cc1 -22%
O=C(O)C1CC(=O)N(c2ccc(F)cc2)C1 (stereo unspecified) -8.98%
O=C(CNC(=O)c1ccc2c(c1)OCO2)N/N=C(Br)/C=C/c1ccccc1 -9.13%
COc1cc(Cl)c(C)cc1NC(=O)Cc1ccc(OC)c(OC)c1 -35.2%
CC(C)(C)c1ccc(C(=O)Nc2ccc3c(c2)C(=O)NC3=O)cc1 -38.2%
Cc1[nH]c2ccccc2c1-c1nc2ccccc2[nH]1 -11.8%
COc1ccc(CNC(=O)C2(CC3CC(c4ccccc4)=NO3)CCN(C(=O)C3CCCC3)CC2)cc1 (stereo unspecified) -5.73%
Cc1ccc(NC(=O)COC(=O)c2oc3ccccc3c2C)cc1S(=O)(=O)N1CCOCC1 -2.71%
O=C(N/N=C/C=C/c1ccccc1)c1ccccn1 -0.876%
COCCNC(=O)CSc1nc2ccccc2c(=O)n1CC1CCCO1 (stereo unspecified) 0.611%
O=C(Nc1cccc(-c2cn3ccccc3n2)c1)C1CC1 -6.54%
c1ccc(-c2csc(N3CCN(c4ccccn4)CC3)n2)cc1 -27.3%
CCc1ccc(NC(=O)Nc2ccc3c(c2)N(C)C(=O)CS3)cc1 -38.6%
COc1cc(C(=O)N(CCN(C)C)CC2CCCN(Cc3ccccc3F)C2)ccc1C (stereo unspecified) -2.16%
N=c1c(S(=O)(=O)c2ccc(Br)cc2)cc2c(=O)n3ccccc3nc2n1C1CCCC1 -8.18%
O=C(Cc1ccccc1)NC(=S)Nc1ccc(OC(F)F)cc1 -38.1%
CCCCCC1CCC(C(=O)N2CCOCC2)CC1 (stereo unspecified) -36.1%
Oc1ccccc1N=Cc1c(O)ccc2ccccc12 -39.7%
Cc1ccc(C)c(S(=O)(=O)N2CCN(C(=O)c3ccncc3)CC2)c1 -38.2%
Cc1ccc(S(=O)(=O)N(C)C)cc1NC(=O)c1ccc2ccccc2n1 2.32%
CCOC(=O)C1CCN(S(=O)(=O)c2ccc(CNC(=O)c3ccccc3)s2)CC1 -4.78%
O=C(Nc1ccc(Cl)cc1)Nc1cccc2nsnc12 -37%
COc1ccc(CC(=O)Nc2cccc3ccccc23)cc1OC -26.5%
COc1cccc(-c2csc(N3CCN(CC(=O)NNC(=O)c4ccco4)CC3)n2)c1 4.79%
CC(C)(C)c1ccc(/C=N/OCC(=O)NCc2ccc(F)cc2)cc1 -39.6%

Five entries out of the list, ordered by heavy-atom count, rising.
Activity change, positive = potentiation, inactive:
COc1ccc2nc(-c3ccccc3)[nH]c2c1 -11.1%
CC(=O)O/N=C1\C(=O)N(Cc2ccc(C)cc2)c2ccccc21 -10%
Cc1ccc(C(=O)Nc2ccc3cn[nH]c3c2)cc1S(=O)(=O)N1CCOCC1 -28.3%
N=c1c(S(=O)(=O)c2ccc(Br)cc2)cc2c(=O)n3ccccc3nc2n1C1CCCC1 -8.18%
CC(C)(C)OC(=O)CNC(=O)c1[nH]cnc1C(=O)N[C@@H](Cc1ccccc1)C(=O)OC(C)(C)C -38.9%
